Assay results reported in article PMC8564014.

By UniProt entry, the sequences of proteins in these tests, tags left out.
UniProt Q13114: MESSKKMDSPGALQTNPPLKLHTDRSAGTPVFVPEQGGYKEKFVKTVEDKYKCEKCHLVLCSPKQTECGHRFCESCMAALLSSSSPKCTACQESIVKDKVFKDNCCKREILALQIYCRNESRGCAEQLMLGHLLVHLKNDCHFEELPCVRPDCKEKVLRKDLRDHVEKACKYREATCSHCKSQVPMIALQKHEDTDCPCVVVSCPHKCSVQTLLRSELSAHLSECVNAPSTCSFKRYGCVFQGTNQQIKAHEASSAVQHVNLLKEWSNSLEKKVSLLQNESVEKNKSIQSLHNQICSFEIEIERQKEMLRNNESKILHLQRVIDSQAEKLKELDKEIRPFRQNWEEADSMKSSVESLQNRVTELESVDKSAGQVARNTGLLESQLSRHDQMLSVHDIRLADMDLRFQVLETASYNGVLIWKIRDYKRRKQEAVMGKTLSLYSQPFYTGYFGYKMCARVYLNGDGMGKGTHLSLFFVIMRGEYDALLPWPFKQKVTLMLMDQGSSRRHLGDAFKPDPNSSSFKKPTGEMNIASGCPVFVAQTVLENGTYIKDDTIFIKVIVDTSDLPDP

B1: UGP2 (protein, UniProt Q16851 1-508)
chain: MSRFVQDLSKAMSQDGASQFQEVIRQELELSVKKELEKILTTASSHEFEHTKKDLDGFRKLFHRFLQEKGPSVDWGKIQRPPEDSIQPYEKIKARGLPDNISSVLNKLVVVKLNGGLGTSMGCKGPKSLIGVRNENTFLDLTVQQIEHLNKTYNTDVPLVLMNSFNTDEDTKKILQKYNHCRVKIYTFNQSRYPRINKESLLPVAKDVSYSGENTEAWYPPGHGDIYASFYNSGLLDTFIGEGKEYIFVSNIDNLGATVDLYILNHLMNPPNGKRCEFVMEVTNKTRADVKGGTLTQYEGKLRLVEIAQVPKAHVDEFKSVSKFKIFNTNNLWISLAAVKRLQEQNAIDMEIIVNAKTLDGGLNVIQLETAVGAAIKSFENSLGINVPRSRFLPVKTTSDLLLVMSNLYSLNAGSLTMSEKREFPTVPLVKLGSSFTKVQDYLRRFESIPDMLELDHLTVSGDVTFGKNVSLKGTVIIIANHGDRIDIPPGAVLENKIVSGNLRILDH
B2: ALDH3A1 (protein, UniProt P30838 1-453)
chain: MSKISEAVKRARAAFSSGRTRPLQFRIQQLEALQRLIQEQEQELVGALAADLHKNEWNAYYEEVVYVLEEIEYMIQKLPEWAADEPVEKTPQTQQDELYIHSEPLGVVLVIGTWNYPFNLTIQPMVGAIAAGNSVVLKPSELSENMASLLATIIPQYLDKDLYPVINGGVPETTELLKERFDHILYTGSTGVGKIIMTAAAKHLTPVTLELGGKSPCYVDKNCDLDVACRRIAWGKFMNSGQTCVAPDYILCDPSIQNQIVEKLKKSLKEFYGEDAKKSRDYGRIISARHFQRVMGLIEGQKVAYGGTGDAATRYIAPTILTDVDPQSPVMQEEIFGPVLPIVCVRSLEEAIQFINQREKPLALYMFSSNDKVIKKMIAETSSGGVAANDVIVHITLHSLPFGGVGNSGMGSYHGKKSFETFSHRRSCLVRPLMNDEGLKVRYPPSPAKMTQH
B3: SLC4A7 (protein, UniProt Q9Y6M7 1-1214)
chain: MERFRLEKKLPGPDEEAVVDLGKTSSTVNTKFEKEELESHRAVYIGVHVPFSKESRRRHRHRGHKHHHRRRKDKESDKEDGRESPSYDTPSQRVQFILGTEDDDEEHIPHDLFTEMDELCYRDGEEYEWKETARWLKFEEDVEDGGDRWSKPYVATLSLHSLFELRSCILNGTVMLDMRASTLDEIADMVLDNMIASGQLDESIRENVREALLKRHHHQNEKRFTSRIPLVRSFADIGKKHSDPHLLERNGEGLSASRHSLRTGLSASNLSLRGESPLSLLLGHLLPSSRAGTPAGSRCTTPVPTPQNSPPSSPSISRLTSRSSQESQRQAPELLVSPASDDIPTVVIHPPEEDLEAALKGEEQKNEENVDLTPGILASPQSAPGNLDNSKSGEIKGNGSGGSRENSTVDFSKVDMNFMRKIPTGAEASNVLVGEVDFLERPIIAFVRLAPAVLLTGLTEVPVPTRFLFLLLGPAGKAPQYHEIGRSIATLMTDEIFHDVAYKAKDRNDLLSGIDEFLDQVTVLPPGEWDPSIRIEPPKSVPSQEKRKIPVFHNGSTPTLGETPKEAAHHAGPELQRTGRLFGGLILDIKRKAPFFLSDFKDALSLQCLASILFLYCACMSPVITFGGLLGEATEGRISAIESLFGASLTGIAYSLFAGQPLTILGSTGPVLVFEKILYKFCRDYQLSYLSLRTSIGLWTSFLCIVLVATDASSLVCYITRFTEEAFAALICIIFIYEALEKLFDLGETYAFNMHNNLDKLTSYSCVCTEPPNPSNETLAQWKKDNITAHNISWRNLTVSECKKLRGVFLGSACGHHGPYIPDVLFWCVILFFTTFFLSSFLKQFKTKRYFPTKVRSTISDFAVFLTIVIMVTIDYLVGVPSPKLHVPEKFEPTHPERGWIISPLGDNPWWTLLIAAIPALLCTILIFMDQQITAVIINRKEHKLKKGAGYHLDLLMVGVMLGVCSVMGLPWFVAATVLSISHVNSLKVESECSAPGEQPKFLGIREQRVTGLMIFILMGLSVFMTSVLKFIPMPVLYGVFLYMGVSSLKGIQLFDRIKLFGMPAKHQPDLIYLRYVPLWKVHIFTVIQLTCLVLLWVIKVSAAAVVFPMMVLALVFVRKLMDLCFTKRELSWLDDLMPESKKKKEDDKKKKEKEEAERMLQDDDDTVHLPFEGGSLLQIPVKALKYSPDKPVSVKISFEDEPRKKYVDAETSL
B4: APEH (protein, UniProt P13798 1-732)
chain: MERQVLLSEPEEAAALYRGLSRQPALSAACLGPEVTTQYGGQYRTVHTEWTQRDLERMENIRFCRQYLVFHDGDSVVFAGPAGNSVETRGELLSRESPSGTMKAVLRKAGGTGPGEEKQFLEVWEKNRKLKSFNLSALEKHGPVYEDDCFGCLSWSHSETHLLYVAEKKRPKAESFFQTKALDVSASDDEIARLKKPDQAIKGDQFVFYEDWGENMVSKSIPVLCVLDVESGNISVLEGVPENVSPGQAFWAPGDAGVVFVGWWHEPFRLGIRFCTNRRSALYYVDLIGGKCELLSDDSLAVSSPRLSPDQCRIVYLQYPSLIPHHQCSQLCLYDWYTKVTSVVVDVVPRQLGENFSGIYCSLLPLGCWSADSQRVVFDSAQRSRQDLFAVDTQVGTVTSLTAGGSGGSWKLLTIDQDLMVAQFSTPSLPPTLKVGFLPSAGKEQSVLWVSLEEAEPIPDIHWGIRVLQPPPEQENVQYAGLDFEAILLQPGSPPDKTQVPMVVMPHGGPHSSFVTAWMLFPAMLCKMGFAVLLVNYRGSTGFGQDSILSLPGNVGHQDVKDVQFAVEQVLQEEHFDASHVALMGGSHGGFISCHLIGQYPETYRACVARNPVINIASMLGSTDIPDWCVVEAGFPFSSDCLPDLSVWAEMLDKSPIRYIPQVKTPLLLMLGQEDRRVPFKQGMEYYRALKTRNVPVRLLLYPKSTHALSEVEVESDSFMNAVLWLRTHLGS
B5: RETSAT (protein, UniProt Q6NUM9 19-610)
chain: KVYLGLFSGSSPNPFSEDVKRPPAPLVTDKEARKKVLKQAFSANQVPEKLDVVVIGSGFGGLAAAAILAKAGKRVLVLEQHTKAGGCCHTFGKNGLEFDTGIHYIGRMEEGSIGRFILDQITEGQLDWAPLSSPFDIMVLEGPNGRKEYPMYSGEKAYIQGLKEKFPQEEAIIDKYIKLVKVVSSGAPHAILLKFLPLPVVQLLDRCGLLTRFSPFLQASTQSLAEVLQQLGASSELQAVLSYIFPTYGVTPNHSAFSMHALLVNHYMKGGFYPRGGSSEIAFHTIPVIQRAGGAVLTKATVQSVLLDSAGKACGVSVKKGHELVNIYCPIVVSNAGLFNTYEHLLPGNARCLPGVKQQLGTVRPGLGMTSVFICLRGTKEDLHLPSTNYYVYYDTDMDQAMERYVSMPREEAAEHIPLLFFAFPSAKDPTWEDRFPGRSTMIMLIPTAYEWFEEWQAELKGKRGSDYETFKNSFVEASMSVVLKLFPQLEGKVESVTAGSPLTNQFYLAAPRGACYGADHDLGRLHPCVMASLRAQSPIPNLYLTGQDIFTCGLVGALQGALLCSSAILKRNLYSDLKNLDSRIRAQKKKN
B6: PSAT1 (protein, UniProt Q9Y617 1-370)
chain: MDAPRQVVNFGPGPAKLPHSVLLEIQKELLDYKGVGISVLEMSHRSSDFAKIINNTENLVRELLAVPDNYKVIFLQGGGCGQFSAVPLNLIGLKAGRCADYVVTGAWSAKAAEEAKKFGTINIVHPKLGSYTKIPDPSTWNLNPDASYVYYCANETVHGVEFDFIPDVKGAVLVCDMSSNFLSKPVDVSKFGVIFAGAQKNVGSAGVTVVIVRDDLLGFALRECPSVLEYKVQAGNSSLYNTPPCFSIYVMGLVLEWIKNNGGAAAMEKLSSIKSQTIYEIIDNSQGFYVCPVEPQNRSKMNIPFRIGNAKGDDALEKRFLDKALELNMLSLKGHRSVGGIRASLYNAVTIEDVQKLAAFMKKFLEMHQL
B7: PGM2 (protein, UniProt Q96G03 1-612)
chain: MAAPEGSGLGEDARLDQETAQWLRWDKNSLTLEAVKRLIAEGNKEELRKCFGARMEFGTAGLRAAMGPGISRMNDLTIIQTTQGFCRYLEKQFSDLKQKGIVISFDARAHPSSGGSSRRFARLAATTFISQGIPVYLFSDITPTPFVPFTVSHLKLCAGIMITASHNPKQDNGYKVYWDNGAQIISPHDKGISQAIEENLEPWPQAWDDSLIDSSPLLHNPSASINNDYFEDLKKYCFHRSVNRETKVKFVHTSVHGVGHSFVQSAFKAFDLVPPEAVPEQKDPDPEFPTVKYPNPEEGKGVLTLSFALADKTKARIVLANDPDADRLAVAEKQDSGEWRVFSGNELGALLGWWLFTSWKEKNQDRSALKDTYMLSSTVSSKILRAIALKEGFHFEETLTGFKWMGNRAKQLIDQGKTVLFAFEEAIGYMCCPFVLDKDGVSAAVISAELASFLATKNLSLSQQLKAIYVEYGYHITKASYFICHDQETIKKLFENLRNYDGKNNYPKACGKFEISAIRDLTTGYDDSQPDKKAVLPTSKSSQMITFTFANGGVATMRTSGTEPKIKYYAELCAPPGNSDPEQLKKELNELVSAIEEHFFQPQKYNLQPKAD
B8: DBI (protein, UniProt P07108 1-87)
chain: MSQAEFEKAAEEVRHLKTKPSDEEMLFIYGHYKQATVGDINTERPGMLDFTGKAKWDAWNELKGTSKEDAMKAYINKVEELKKKYGI
B9: PRKG2 (protein, UniProt Q13237 1-762)
chain: MGNGSVKPKHSKHPDGHSGNLTTDALRNKVTELERELRRKDAEIQEREYHLKELREQLSKQTVAIAELTEELQNKCIQLNKLQDVVHMQGGSPLQASPDKVPLEVHRKTSGLVSLHSRRGAKAGVSAEPTTRTYDLNKPPEFSFEKARVRKDSSEKKLITDALNKNQFLKRLDPQQIKDMVECMYGRNYQQGSYIIKQGEPGNHIFVLAEGRLEVFQGEKLLSSIPMWTTFGELAILYNCTRTASVKAITNVKTWALDREVFQNIMRRTAQARDEQYRNFLRSVSLLKNLPEDKLTKIIDCLEVEYYDKGDYIIREGEEGSTFFILAKGKVKVTQSTEGHDQPQLIKTLQKGEYFGEKALISDDVRSANIIAEENDVACLVIDRETFNQTVGTFEELQKYLEGYVANLNRDDEKRHAKRSMSNWKLSKALSLEMIQLKEKVARFSSSSPFQNLEIIATLGVGGFGRVELVKVKNENVAFAMKCIRKKHIVDTKQQEHVYSEKRILEELCSPFIVKLYRTFKDNKYVYMLLEACLGGELWSILRDRGSFDEPTSKFCVACVTEAFDYLHRLGIIYRDLKPENLILDAEGYLKLVDFGFAKKIGSGQKTWTFCGTPEYVAPEVILNKGHDFSVDFWSLGILVYELLTGNPPFSGVDQMMTYNLILKGIEKMDFPRKITRRPEDLIRRLCRQNPTERLGNLKNGINDIKKHRWLNGFNWEGLKARSLPSPLQRELKGPIDHSYFDKYPPEKGMPPDELSGWDKDF

target: TRAF3-SBP-6xHis (in transduced human MM 8226 cells) (human) (UniProt Q13114); assay: affinity purification with mass spectrometry; mitochondria isolated from 8226 cells transduced with pUB-TRAF3-SBP-6xHis, lysed in 1% CHAPS lysis buffer; TRAF3-SBP-6xHis captured on Streptavidin-Sepharose beads, 5 washes; LC-MS/MS of gel slices; cells transduced with FLAG-TRAF3 as negative control

binding, binds:
B1, B2, B3, B4, B5, B6, B7, B8, B9

These are yes or no findings as the source states them, for the method shown. In cells and extracts the contact can be indirect. Here binding means that the protein was enriched with, or labelled near, the bait; the list need not be complete.
